PubChem BioAssay AID1224830, NIAID – 2016
Here is one part, drawn at random, of about 18,000 reagents. Of all reagents, about 2,900 (16%) got an active call. 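Calls are made per well; low scores hint the gene aids the LPS response, high scores that it dampens it.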 Entries without a mark were called inactive. Repeated entries: four replicate wells of each siRNA pool.

- Test: 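Genes whose knock-down alters the TNF-alpha reporter response to LPS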 (primary screen)
- System: human THP-1 monocytic leukaemia cells, TNF dual-luciferase reporter clone, PMA-differentiated to macrophage-like cells
- Reagent: siRNA pool against human genes, 50 nM
- Timing: LPS for 4 h, given about 3 days after siRNA transfection
- Challenge: bacterial LPS (TLR4 ligand), 10 ng/ml
- Measurement: 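Ratio of firefly to renilla light, scaled to the plate median and expressed as a robust z-score per replicate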
- Direction: TNF reporter robust z-score: higher = stronger TNF reporter response to LPS
- Call rule: 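a well is active when its z-score exceeds 2.8 or falls below -1.5; control wells carry no call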

The opening 9 entries, ahead of the listing:
| target | TNF reporter robust z-score |
| --- | --- |
| OR6C1 (olfactory receptor family 6 subfamily C member 1) | -1.11 |
| OR6C1 (olfactory receptor family 6 subfamily C member 1) | -1.02 |
| OR6C1 (olfactory receptor family 6 subfamily C member 1) | -0.71 |
| OR6C1 (olfactory receptor family 6 subfamily C member 1) | -0.16 |
| CD59 (CD59 molecule (CD59 blood group)) | 1.41 |
| CD59 (CD59 molecule (CD59 blood group)) | -0.08 |
| CD59 (CD59 molecule (CD59 blood group)) | 0.27 |
| CD59 (CD59 molecule (CD59 blood group)) | 1.01 |
| NASP (nuclear autoantigenic sperm protein) | -0.44 |

Results, from the start:
| target | TNF reporter robust z-score |
| --- | --- |
| OR6C1 (olfactory receptor family 6 subfamily C member 1) | -1.11 |
| OR6C1 (olfactory receptor family 6 subfamily C member 1) | -1.02 |
| OR6C1 (olfactory receptor family 6 subfamily C member 1) | -0.71 |
| OR6C1 (olfactory receptor family 6 subfamily C member 1) | -0.16 |
| CD59 (CD59 molecule (CD59 blood group)) | 1.41 |
| CD59 (CD59 molecule (CD59 blood group)) | -0.08 |
| CD59 (CD59 molecule (CD59 blood group)) | 0.27 |
| CD59 (CD59 molecule (CD59 blood group)) | 1.01 |
| NASP (nuclear autoantigenic sperm protein) | -0.44 |
| NASP (nuclear autoantigenic sperm protein) | 0.88 |
| NASP (nuclear autoantigenic sperm protein) | -1.67 (active) |
| NASP (nuclear autoantigenic sperm protein) | 0 |
| CDC42EP4 (CDC42 effector protein 4) | -0.27 |
| CDC42EP4 (CDC42 effector protein 4) | -0.37 |
| CDC42EP4 (CDC42 effector protein 4) | 0.08 |
| CDC42EP4 (CDC42 effector protein 4) | 0.18 |
| MR1 (major histocompatibility complex, class I-related) | -1.54 (active) |
| MR1 (major histocompatibility complex, class I-related) | -1.37 |
| MR1 (major histocompatibility complex, class I-related) | -1.73 (active) |
| MR1 (major histocompatibility complex, class I-related) | -1.53 (active) |
| RNF20 (ring finger protein 20) | 1.11 |
| RNF20 (ring finger protein 20) | -0.13 |
| RNF20 (ring finger protein 20) | 1.31 |
| RNF20 (ring finger protein 20) | 1.07 |
| LCLAT1 (lysocardiolipin acyltransferase 1) | 0.47 |
| LCLAT1 (lysocardiolipin acyltransferase 1) | 0.65 |
| LCLAT1 (lysocardiolipin acyltransferase 1) | 0.1 |
| LCLAT1 (lysocardiolipin acyltransferase 1) | -0.43 |
| TRPV4 | -0.48 |
| TRPV4 | 0.44 |
| TRPV4 | 0.42 |
| TRPV4 | 2.03 |
| LINC02875 (long independently transcribed non-coding RNA 2875) | -0.74 |
| LINC02875 (long independently transcribed non-coding RNA 2875) | -0.52 |
| LINC02875 (long independently transcribed non-coding RNA 2875) | -0.72 |
| LINC02875 (long independently transcribed non-coding RNA 2875) | -0.78 |
| TANK (TRAF family member associated NFKB activator) | 1.03 |
| TANK (TRAF family member associated NFKB activator) | 0.77 |
| TANK (TRAF family member associated NFKB activator) | 0.56 |
| KALRN (kalirin RhoGEF kinase) | -0.88 |
| KALRN (kalirin RhoGEF kinase) | -0.43 |
| KALRN (kalirin RhoGEF kinase) | -1.02 |
| PRAMEF4 (PRAME family member 4) | -0.35 |
| PRAMEF4 (PRAME family member 4) | -0.6 |
| PRAMEF4 (PRAME family member 4) | -0.42 |
| PRAMEF4 (PRAME family member 4) | 0.95 |
| MITF (melanocyte inducing transcription factor) | 0.61 |
| MITF (melanocyte inducing transcription factor) | -0.23 |
| MITF (melanocyte inducing transcription factor) | -0.43 |
| MITF (melanocyte inducing transcription factor) | -1.4 |
| LRRC2 (leucine rich repeat containing 2) | 1.19 |
| LRRC2 (leucine rich repeat containing 2) | 0.45 |
| LRRC2 (leucine rich repeat containing 2) | 0.97 |
| LRRC2 (leucine rich repeat containing 2) | 2.25 |
| PNP (purine nucleoside phosphorylase) | 4.25 (active) |
| PNP (purine nucleoside phosphorylase) | 2.38 |
| PNP (purine nucleoside phosphorylase) | 3.9 (active) |
| PNP (purine nucleoside phosphorylase) | 1.52 |
| OR4F3 (olfactory receptor family 4 subfamily F member 3) | -0.38 |
| OR4F3 (olfactory receptor family 4 subfamily F member 3) | 1.58 |
| OR4F3 (olfactory receptor family 4 subfamily F member 3) | -0.13 |
| OR4F3 (olfactory receptor family 4 subfamily F member 3) | -0.89 |
| RARA (retinoic acid receptor alpha) | -0.24 |
| RARA (retinoic acid receptor alpha) | -0.49 |
| RARA (retinoic acid receptor alpha) | -0.3 |
| RARA (retinoic acid receptor alpha) | 0.29 |
| PPP1CC (protein phosphatase 1 catalytic subunit gamma) | -0.2 |
| PPP1CC (protein phosphatase 1 catalytic subunit gamma) | -0.66 |
| PPP1CC (protein phosphatase 1 catalytic subunit gamma) | -0.02 |
| PPP1CC (protein phosphatase 1 catalytic subunit gamma) | 0.68 |
| SPATA25 (spermatogenesis associated 25) | -0.28 |
| SPATA25 (spermatogenesis associated 25) | -0.41 |
| SPATA25 (spermatogenesis associated 25) | -1.07 |
| SPATA25 (spermatogenesis associated 25) | -0.76 |
| CPXM2 (carboxypeptidase X, M14 family member 2) | 1.13 |
| CPXM2 (carboxypeptidase X, M14 family member 2) | 0.47 |
| CPXM2 (carboxypeptidase X, M14 family member 2) | 0.3 |
| CPXM2 (carboxypeptidase X, M14 family member 2) | 0.18 |
